# Only a part is listed here, and it is no random draw. Single values of this set are uncertain.
# Sequences of proteins named here, by UniProt entry; tags and fusion partners are left off. A change or cut given only in a name is not applied to a line headed by its entry.
# UniProt O95816: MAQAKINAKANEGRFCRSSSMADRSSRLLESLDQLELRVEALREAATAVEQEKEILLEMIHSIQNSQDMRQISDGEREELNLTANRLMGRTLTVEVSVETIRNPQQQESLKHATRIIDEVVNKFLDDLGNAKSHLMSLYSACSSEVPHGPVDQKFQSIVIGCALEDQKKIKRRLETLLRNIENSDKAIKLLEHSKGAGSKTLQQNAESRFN
# UniProt O94763, whole entry, looked up: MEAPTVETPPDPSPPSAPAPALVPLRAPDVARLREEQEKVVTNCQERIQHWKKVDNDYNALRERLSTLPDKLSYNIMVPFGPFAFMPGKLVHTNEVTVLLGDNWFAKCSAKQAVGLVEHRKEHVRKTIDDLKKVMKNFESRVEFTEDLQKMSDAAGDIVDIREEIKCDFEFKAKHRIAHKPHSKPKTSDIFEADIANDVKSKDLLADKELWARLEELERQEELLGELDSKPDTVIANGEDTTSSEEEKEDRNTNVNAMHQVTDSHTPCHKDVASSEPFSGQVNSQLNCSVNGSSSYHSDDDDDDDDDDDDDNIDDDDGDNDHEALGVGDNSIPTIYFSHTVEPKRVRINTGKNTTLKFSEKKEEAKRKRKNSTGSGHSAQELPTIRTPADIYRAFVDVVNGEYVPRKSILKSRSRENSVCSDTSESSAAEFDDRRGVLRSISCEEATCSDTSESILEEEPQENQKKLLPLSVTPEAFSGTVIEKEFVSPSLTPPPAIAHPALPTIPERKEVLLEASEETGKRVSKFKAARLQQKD
# UniProt P00390: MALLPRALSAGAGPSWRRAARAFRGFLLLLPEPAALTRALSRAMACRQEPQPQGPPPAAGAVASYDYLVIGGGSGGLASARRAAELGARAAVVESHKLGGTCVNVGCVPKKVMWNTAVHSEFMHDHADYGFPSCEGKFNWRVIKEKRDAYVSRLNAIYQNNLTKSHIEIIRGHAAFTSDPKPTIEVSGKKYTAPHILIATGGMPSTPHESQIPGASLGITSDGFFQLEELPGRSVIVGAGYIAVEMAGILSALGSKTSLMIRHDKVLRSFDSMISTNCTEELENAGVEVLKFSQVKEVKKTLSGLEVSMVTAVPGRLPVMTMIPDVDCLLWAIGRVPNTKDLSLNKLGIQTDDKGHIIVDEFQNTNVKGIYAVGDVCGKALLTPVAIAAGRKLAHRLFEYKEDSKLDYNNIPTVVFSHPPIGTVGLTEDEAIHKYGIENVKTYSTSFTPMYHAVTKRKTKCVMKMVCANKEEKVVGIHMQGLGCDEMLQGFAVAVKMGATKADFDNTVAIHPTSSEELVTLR
# UniProt P00367: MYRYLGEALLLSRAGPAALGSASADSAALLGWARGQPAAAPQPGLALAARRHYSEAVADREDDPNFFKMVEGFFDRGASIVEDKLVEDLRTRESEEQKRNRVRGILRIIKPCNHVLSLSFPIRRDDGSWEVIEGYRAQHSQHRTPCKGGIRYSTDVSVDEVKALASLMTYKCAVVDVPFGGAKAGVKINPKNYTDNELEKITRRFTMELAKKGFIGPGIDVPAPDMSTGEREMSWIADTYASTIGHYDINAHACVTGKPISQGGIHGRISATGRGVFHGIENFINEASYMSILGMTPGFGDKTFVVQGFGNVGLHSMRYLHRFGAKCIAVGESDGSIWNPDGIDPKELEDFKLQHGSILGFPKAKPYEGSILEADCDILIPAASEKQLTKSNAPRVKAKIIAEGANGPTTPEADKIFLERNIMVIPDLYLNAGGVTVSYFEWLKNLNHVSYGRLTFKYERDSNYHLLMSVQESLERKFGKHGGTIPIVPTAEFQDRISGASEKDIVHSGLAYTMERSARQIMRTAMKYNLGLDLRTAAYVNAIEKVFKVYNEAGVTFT
# UniProt O95391: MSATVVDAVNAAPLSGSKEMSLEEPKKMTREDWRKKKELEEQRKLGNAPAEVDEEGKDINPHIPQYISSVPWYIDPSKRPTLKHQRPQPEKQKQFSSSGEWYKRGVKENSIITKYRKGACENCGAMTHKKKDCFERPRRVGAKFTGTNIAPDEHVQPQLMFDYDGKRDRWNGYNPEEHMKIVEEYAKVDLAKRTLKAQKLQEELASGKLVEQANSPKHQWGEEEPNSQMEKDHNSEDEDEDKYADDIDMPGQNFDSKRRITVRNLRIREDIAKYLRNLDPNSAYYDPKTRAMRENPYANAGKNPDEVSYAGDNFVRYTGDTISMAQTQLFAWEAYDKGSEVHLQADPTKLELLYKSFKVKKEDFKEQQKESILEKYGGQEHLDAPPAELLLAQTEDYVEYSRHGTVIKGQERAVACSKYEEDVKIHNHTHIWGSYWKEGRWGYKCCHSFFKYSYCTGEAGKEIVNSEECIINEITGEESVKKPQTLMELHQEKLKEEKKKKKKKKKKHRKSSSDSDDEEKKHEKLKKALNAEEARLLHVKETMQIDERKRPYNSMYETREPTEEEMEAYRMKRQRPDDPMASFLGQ
# UniProt O95104: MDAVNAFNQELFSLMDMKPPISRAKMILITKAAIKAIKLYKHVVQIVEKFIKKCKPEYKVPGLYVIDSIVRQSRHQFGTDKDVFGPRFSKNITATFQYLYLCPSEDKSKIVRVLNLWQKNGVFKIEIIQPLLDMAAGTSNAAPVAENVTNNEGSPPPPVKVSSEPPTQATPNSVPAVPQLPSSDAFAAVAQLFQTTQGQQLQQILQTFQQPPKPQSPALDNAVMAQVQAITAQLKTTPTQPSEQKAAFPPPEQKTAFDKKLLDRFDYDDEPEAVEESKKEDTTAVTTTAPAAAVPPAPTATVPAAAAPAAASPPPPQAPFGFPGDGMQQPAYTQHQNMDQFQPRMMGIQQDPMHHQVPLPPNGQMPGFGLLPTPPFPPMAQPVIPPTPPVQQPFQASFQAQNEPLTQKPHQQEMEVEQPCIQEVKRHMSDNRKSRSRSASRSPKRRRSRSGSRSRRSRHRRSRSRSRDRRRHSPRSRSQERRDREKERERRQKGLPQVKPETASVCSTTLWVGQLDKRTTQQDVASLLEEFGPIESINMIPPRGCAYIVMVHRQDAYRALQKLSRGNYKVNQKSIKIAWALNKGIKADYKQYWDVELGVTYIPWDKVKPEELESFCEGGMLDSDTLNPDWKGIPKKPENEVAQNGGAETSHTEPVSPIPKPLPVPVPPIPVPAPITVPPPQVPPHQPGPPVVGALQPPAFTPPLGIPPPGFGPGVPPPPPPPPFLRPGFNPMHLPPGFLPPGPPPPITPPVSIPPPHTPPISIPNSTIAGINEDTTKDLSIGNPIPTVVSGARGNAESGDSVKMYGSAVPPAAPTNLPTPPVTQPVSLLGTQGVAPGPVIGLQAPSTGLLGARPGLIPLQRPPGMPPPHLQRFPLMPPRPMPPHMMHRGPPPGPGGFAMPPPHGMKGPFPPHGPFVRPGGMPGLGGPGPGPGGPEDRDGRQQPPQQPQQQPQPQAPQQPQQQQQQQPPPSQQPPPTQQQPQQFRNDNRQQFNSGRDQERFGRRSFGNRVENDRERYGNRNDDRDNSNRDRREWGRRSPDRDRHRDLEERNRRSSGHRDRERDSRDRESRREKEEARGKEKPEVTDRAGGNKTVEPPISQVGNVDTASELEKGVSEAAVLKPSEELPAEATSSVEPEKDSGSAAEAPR
# UniProt P07814: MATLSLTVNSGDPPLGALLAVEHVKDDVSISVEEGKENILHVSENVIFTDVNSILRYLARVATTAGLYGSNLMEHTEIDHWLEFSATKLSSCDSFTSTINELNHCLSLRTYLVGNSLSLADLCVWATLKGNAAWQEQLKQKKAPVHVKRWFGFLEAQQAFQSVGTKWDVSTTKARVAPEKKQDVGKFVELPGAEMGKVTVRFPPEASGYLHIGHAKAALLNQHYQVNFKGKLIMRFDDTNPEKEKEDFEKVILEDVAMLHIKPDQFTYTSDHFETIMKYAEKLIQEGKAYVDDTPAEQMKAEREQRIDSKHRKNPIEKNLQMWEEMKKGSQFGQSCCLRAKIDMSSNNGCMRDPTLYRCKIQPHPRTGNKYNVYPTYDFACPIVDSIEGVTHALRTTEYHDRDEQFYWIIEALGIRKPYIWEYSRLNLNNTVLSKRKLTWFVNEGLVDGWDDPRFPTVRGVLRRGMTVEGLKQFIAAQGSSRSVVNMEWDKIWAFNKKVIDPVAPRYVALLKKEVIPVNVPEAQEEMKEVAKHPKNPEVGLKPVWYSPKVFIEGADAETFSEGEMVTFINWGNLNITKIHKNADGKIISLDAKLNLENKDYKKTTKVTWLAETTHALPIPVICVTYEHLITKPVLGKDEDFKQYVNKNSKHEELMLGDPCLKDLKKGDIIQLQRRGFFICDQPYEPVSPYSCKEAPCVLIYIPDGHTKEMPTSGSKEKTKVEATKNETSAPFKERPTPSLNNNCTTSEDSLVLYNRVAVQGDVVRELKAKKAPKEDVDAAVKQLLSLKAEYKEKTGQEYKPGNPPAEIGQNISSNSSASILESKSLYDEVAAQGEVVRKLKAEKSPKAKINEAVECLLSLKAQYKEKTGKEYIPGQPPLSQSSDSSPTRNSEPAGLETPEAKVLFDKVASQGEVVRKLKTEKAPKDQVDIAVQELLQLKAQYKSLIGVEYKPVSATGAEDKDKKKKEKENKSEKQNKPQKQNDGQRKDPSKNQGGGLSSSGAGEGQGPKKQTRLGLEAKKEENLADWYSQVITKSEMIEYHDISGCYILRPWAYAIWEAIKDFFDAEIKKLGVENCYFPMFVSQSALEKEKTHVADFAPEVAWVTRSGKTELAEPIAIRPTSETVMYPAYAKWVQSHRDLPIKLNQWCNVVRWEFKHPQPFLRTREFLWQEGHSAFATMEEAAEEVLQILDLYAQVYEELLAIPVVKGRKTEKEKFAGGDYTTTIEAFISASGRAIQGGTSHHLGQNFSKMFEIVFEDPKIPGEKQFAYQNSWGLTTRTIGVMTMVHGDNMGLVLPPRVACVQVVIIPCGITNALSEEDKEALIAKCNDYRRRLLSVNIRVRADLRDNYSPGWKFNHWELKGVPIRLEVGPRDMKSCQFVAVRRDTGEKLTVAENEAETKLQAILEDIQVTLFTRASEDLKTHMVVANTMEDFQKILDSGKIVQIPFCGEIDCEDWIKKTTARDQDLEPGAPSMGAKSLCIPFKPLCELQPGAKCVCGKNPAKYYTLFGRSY
# UniProt O94806: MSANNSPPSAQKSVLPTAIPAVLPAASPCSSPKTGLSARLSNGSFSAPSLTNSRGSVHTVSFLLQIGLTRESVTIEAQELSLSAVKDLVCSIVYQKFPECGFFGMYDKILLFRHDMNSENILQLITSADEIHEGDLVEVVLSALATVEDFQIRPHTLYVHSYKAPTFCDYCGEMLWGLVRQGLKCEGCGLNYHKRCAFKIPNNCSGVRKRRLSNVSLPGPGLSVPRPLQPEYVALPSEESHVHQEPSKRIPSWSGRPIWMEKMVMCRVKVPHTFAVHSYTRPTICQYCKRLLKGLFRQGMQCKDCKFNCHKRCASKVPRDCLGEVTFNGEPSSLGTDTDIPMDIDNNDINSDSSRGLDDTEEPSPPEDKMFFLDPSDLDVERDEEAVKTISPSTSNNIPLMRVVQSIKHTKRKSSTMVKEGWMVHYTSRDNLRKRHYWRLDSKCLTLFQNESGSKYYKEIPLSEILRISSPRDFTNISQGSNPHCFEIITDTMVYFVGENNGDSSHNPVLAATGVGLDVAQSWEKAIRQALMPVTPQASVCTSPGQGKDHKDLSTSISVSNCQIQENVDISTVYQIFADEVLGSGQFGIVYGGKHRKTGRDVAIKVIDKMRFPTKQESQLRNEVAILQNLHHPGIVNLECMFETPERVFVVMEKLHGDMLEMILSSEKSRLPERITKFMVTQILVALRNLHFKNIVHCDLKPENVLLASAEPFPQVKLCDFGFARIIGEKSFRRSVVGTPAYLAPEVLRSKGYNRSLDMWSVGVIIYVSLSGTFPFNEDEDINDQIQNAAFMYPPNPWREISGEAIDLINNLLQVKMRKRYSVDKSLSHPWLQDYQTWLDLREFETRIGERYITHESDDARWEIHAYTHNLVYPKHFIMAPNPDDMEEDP
# UniProt O94826, whole entry, looked up: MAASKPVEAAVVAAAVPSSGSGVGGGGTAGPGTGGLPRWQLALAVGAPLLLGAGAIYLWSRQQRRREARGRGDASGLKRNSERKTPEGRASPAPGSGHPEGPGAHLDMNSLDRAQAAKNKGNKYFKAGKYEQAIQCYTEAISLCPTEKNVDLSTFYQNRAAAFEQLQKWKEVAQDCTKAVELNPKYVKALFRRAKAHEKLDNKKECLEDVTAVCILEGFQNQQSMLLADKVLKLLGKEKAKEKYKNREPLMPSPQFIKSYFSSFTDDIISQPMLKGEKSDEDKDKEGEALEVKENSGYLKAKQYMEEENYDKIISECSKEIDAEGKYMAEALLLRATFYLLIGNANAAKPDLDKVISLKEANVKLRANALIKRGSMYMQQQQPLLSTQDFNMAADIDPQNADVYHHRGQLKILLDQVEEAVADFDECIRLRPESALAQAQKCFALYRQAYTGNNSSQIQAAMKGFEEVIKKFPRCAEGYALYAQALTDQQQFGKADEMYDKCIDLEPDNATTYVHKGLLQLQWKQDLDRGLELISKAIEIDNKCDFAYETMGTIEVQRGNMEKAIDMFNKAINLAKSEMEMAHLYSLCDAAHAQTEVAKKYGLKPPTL
# Compound: COC(=O)/C=C/c1ccccc1 [methyl cinnamate]
# Experiment: log2 ratio of iodoacetamide-alkyne labeling of the cysteine site, DMSO over compound (competition); higher = stronger covalent engagement of the cysteine by the compound, active = 1 or more
# Settings: 500 µM; treatment time 1 h; system: HEK293T cell lysate
# How it was run: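 Electrophile (500 µM) or vehicle was added to HEK293T lysate (2 mg/mL) for 1 h at ambient temperature before iodoacetamide alkyne labelling (1 h) and click coupling to sCIP-TMT reagents. After pooling, overnight trypsin digestion at 37 °C, streptavidin enrichment and acid elution, peptides were measured by Orbitrap Eclipse LC-MS/MS with FAIMS and quantified in FragPipe. Each cysteine's log2 competition ratio compares mean control-channel with mean compound-channel reporter intensity, control over compound. Data came from duplicate channels across three replicates, excluding cysteines quantified in only one replicate.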
row,Target,log2 ratio of iodoacetamide-alkyne labeling
1,MBD3 C215 (UniProt O95983),inactive: 0.519
2,ETHE1 C34 (UniProt O95571),inactive: 0.119
3,POLR1A C613 (UniProt O95602),inactive: 0.216
4,SLC25A5 C129 (UniProt P05141),inactive: -0.0103
5,BAG2 C142 (UniProt O95816),inactive: 0.134
6,UniProt O94763_C443,inactive: 0.154
7,GSR C102 (UniProt P00390),inactive: 0.0491
8,GOT2 C106 (UniProt P00505),inactive: 0.398
9,IPO7 C415 (UniProt O95373),inactive: -0.018
10,GLUD1 C327 (UniProt P00367),inactive: 0.226
11,RPLP0 C119 (UniProt P05388),inactive: 0.139
12,SLU7 C469 (UniProt O95391),inactive: 0.158
13,YEATS4 C210 (UniProt O95619),inactive: 0.236
14,UniProt O95104_C506,inactive: 0.105
15,BCL10 C122 (UniProt O95999),inactive: 0.317
16,UniProt P06493_C119,inactive: 0.0639
17,EPRS C1076 (UniProt P07814),inactive: 0.0304
18,PRKD3 C29 (UniProt O94806),inactive: 0.275
19,ALDOA C290 (UniProt P04075),inactive: 0.0926

row,Target,log2 ratio of iodoacetamide-alkyne labeling
1,ALDOA C178 (UniProt P04075),inactive: 0.206
2,TYMS C180 (UniProt P04818),inactive: 0.00107
3,POLR1A C446 (UniProt O95602),inactive: -0.149
4,UniProt O94826_C475,inactive: 0.133
5,KIF20A C270 (UniProt O95235),inactive: 0.203
6,CTSD C117 (UniProt P07339),inactive: 0.218
7,KRT1 C49 (UniProt P04264),inactive: 0.00375
8,KIF4A C269 (UniProt O95239),inactive: 0.159
9,EPRS C381 (UniProt P07814),inactive: 0.12
10,PGM3 C93 (UniProt O95394),inactive: 0.0621
11,MBD3 C172 (UniProt O95983),inactive: -0.0468
12,LMNA C570 (UniProt P02545),inactive: 0.32
13,UBE4B C494 (UniProt O95155),inactive: 0.162
14,HEXIM1 C122 (UniProt O94992),inactive: -0.0421
15,EPRS C1497 (UniProt P07814),inactive: 0.245
16,PAPSS2 C155 (UniProt O95340),inactive: -0.115
17,UniProt O94927_C35,inactive: -0.0362
18,UniProt O94822_C186,inactive: 0.0111

# Individual results from above.
# log2 ratio of iodoacetamide-alkyne labeling with KIF4A C269 (UniProt O95239) is entered as inactive: 0.159
# log2 ratio of iodoacetamide-alkyne labeling with UBE4B C494 (UniProt O95155) is entered as inactive: 0.162
